These results are taken from PMC5856799.

Amino acid sequences for entries named in this document (tags omitted). Residues count along the entry.
UniProt P51884, residues 19-338: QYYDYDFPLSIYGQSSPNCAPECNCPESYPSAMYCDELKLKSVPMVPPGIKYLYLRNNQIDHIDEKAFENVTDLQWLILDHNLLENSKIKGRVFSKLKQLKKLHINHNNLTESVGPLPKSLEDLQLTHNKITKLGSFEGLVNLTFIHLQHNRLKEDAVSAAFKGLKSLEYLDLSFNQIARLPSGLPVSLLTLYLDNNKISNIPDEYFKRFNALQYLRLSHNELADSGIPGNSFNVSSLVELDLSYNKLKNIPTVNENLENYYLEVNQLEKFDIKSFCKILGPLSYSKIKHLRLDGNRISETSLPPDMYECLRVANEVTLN

No constants are given. Whether binding was seen depends on the method and setting. In cells and extracts the contact can be indirect. Some entries that bind do so weakly or less than the wild type.

The experiment has as its target T1, p120 catenin (human (endogenous in A549 and H460)) (UniProt O60716).
T1 sequence: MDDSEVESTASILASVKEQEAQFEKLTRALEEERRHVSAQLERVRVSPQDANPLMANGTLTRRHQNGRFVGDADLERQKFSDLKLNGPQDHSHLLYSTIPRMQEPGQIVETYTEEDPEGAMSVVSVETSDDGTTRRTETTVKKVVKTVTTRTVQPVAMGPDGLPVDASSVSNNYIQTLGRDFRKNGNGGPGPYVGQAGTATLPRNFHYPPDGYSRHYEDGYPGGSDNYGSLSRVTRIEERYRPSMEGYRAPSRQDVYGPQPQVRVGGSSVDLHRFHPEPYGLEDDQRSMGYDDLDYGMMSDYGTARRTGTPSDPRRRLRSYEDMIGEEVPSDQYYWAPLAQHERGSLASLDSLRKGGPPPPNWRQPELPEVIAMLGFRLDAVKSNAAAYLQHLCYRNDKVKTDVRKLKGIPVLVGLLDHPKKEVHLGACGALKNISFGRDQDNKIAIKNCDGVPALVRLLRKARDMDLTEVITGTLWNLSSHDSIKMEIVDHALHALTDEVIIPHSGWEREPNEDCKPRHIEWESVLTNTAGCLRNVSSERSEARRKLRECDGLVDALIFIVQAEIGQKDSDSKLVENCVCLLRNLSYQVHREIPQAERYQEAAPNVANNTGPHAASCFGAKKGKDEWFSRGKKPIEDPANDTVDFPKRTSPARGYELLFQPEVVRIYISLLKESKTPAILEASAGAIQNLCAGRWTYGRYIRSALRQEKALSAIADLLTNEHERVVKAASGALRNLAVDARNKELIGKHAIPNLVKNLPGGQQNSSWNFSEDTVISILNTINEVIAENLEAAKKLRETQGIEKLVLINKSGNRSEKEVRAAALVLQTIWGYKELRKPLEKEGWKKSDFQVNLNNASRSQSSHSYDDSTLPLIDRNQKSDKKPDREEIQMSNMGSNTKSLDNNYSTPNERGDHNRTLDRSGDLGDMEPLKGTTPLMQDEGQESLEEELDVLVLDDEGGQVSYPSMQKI
Put plainly: co-IP; endogenous proteins; total cell lysates of control and LD (lumican shRNA) cells in 1% NP-40, 50 mM Tris pH 7.4, 150 mM NaCl, 2 mM EDTA, 50 mM NaF, 10% glycerol; immunoprecipitated with anti-p120ctn antibody, protein G; western blot for lumican. For orientation: A western blot detects proteins with antibodies after separation by electrophoresis.

For the substance lumican (from UniProt P51884 19-338), the binding entry is “binds”.
